# Test results from the supplement of paper PMC3334620.
# Over roughly 33,000 sequences, “E-score (-0.5 to 0.5)” has its median near -0.0014; the highest 2% begin near 0.25. This is one part of the list.
# Biological target: T1, Cad1 (UniProt P24813)
# T1 sequence: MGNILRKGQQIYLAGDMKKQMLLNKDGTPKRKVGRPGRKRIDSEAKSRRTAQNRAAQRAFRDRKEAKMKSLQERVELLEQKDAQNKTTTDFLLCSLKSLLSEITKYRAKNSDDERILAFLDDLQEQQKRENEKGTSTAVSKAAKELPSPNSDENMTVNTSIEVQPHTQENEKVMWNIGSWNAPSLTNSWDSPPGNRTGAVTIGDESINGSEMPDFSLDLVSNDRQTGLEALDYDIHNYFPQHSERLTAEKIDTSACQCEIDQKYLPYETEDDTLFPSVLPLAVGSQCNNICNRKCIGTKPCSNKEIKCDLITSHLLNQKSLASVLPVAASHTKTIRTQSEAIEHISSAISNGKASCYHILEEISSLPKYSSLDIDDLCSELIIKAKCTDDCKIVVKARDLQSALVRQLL
# Experiment: PBM E-score (8-mer binding enrichment) (E-score (-0.5 to 0.5)); higher = stronger / more preferred TF binding
# Conditions: protein concentration: 100 nM; construct: GST-full length
# Method in brief: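 E-scores (a modified Wilcoxon-Mann-Whitney statistic) were assigned by the Universal PBM Analysis Suite to every ungapped eight-base word pooled with its reverse complement. The input came from universal all-10-mer Agilent arrays made double-stranded by primer extension and probed with GST-tagged yeast transcription factors at about 100-200 nM. Fluorescent anti-GST detected bound protein, and masliner normalised the scans.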
row,Sequence,PBM E-score
1,CACCCCGC,0.0312
2,ACGCACCT,-0.00024
3,GGTCTTAC,-0.0387
4,ACTTGGCC,-0.122
5,AGCTCAGA,0.0478
6,CAGGTTCC,-0.0216
7,AGAACGCG,0.0894
8,CCAGGAAA,0.17
9,CGCGCGAA,0.175
10,CCTTCCTA,-0.39
11,ACCATCTG,-0.0991
12,AGTTAAAG,0.0137
13,CCACTGTC,-0.0971
14,AAGTGCGA,-0.236
15,GCGTTTAA,0.0668
16,CCGCCTTC,-0.135
17,CCCGAAGG,-0.203
18,CGCTTCTA,0.0246
19,TGCTAGCA,0.263
20,GCACACTA,0.00763
21,ATGATGAC,0.0869
22,AATCAAAG,0.0509
23,ACCGTGGC,-0.177
24,AGTCTATA,0.0344
25,AATTAAAG,-0.0007

row,Sequence,PBM E-score
1,AACACATG,0.102
2,CTCAGCAA,0.106
3,CAGGGCTA,-0.182
4,AACGAAGT,-0.0578
5,GACGGCGA,-0.186
6,ACATTCCG,0.05
7,AAGCGAAA,-0.0755
8,CCCTTCTA,-0.29
9,ACTGGCGC,0.128
10,ACTCTGAT,-0.00513
11,GGCACAGA,-0.137
12,AGCCGCCT,0.0248
13,CGCGGACG,0.169
14,CAGCCTAG,-0.0818
15,AGGACCAG,-0.16
16,ATCACGAG,-0.162
17,AAGCAAAT,0.132
18,AGCGTAAG,0.0888
19,ACGCTTTG,-0.0649
20,GCTATCCC,-0.104
21,CTGGTAAA,0.0872
22,ATTGAACG,0.0446
23,ATCGTTGC,-0.00548
24,CCAGTAAG,-0.0339
25,GCGCAGCA,-0.301

row,Sequence,PBM E-score
1,GCTCCTAC,-0.0758
2,ATGACTAC,-0.181
3,CTAAGCGA,0.0774
4,ACTGCGAA,0.00767
5,AGGGTAGA,-0.156
6,GGTACGGA,0.022
7,CATGTCGC,-0.0661
8,AGCTAGGC,-0.13
9,ACGTCCCA,-0.248
10,GGACGGAA,-0.0512
11,AGCCCCCG,-0.454
12,ACAAGATA,0.0123
13,CGCCAACG,-0.0234
14,GCAGCGAC,-0.264
15,GGTTGCCA,0.026
16,CAATAGGC,0.0601
17,AGTGCTAT,-0.132
18,CAATGAGG,-0.258
19,GAAAGATC,-0.0475
20,GGGGGGAA,-0.346
21,CTGTATGC,-0.0435
22,GAGGGGCA,-0.364
23,GAGTAACC,0.0195
24,GGAAGGTA,-0.137
25,CACGACGG,0.176

row,Sequence,PBM E-score
1,CCGAAAGG,-0.0838
2,CGATAGCC,0.00324
3,AGGTGAAT,-0.0273
4,ACATCCAG,0.0415
5,CCACCTCG,-0.249
6,ACTGCCTA,-0.002
7,AAAAGTAA,0.265
8,CTCGTATA,-0.176
9,TGTATGAA,0.0103
10,GGGATTCA,-0.0483
11,AACTTCAT,0.152
12,CCTGTTCG,-0.059
13,GTAAACGA,0.0439
14,GTGACTGA,0.157
15,AACCGGCC,-0.0621
16,GCGAGAAA,0.127
17,TAACGTCA,0.124
18,CTGGGGCA,-0.247
19,AGAACCCC,-0.0841
20,AGAGAAAC,0.0172
21,CCAATGCA,-0.0491
22,AAGGCGCA,0.0457
23,CCGCCTGA,-0.139
24,ATGAGCAT,0.0806
25,AATAAGCC,0.00433

row,Sequence,PBM E-score
1,ACTGGTCT,-0.17
2,CGCAGTTA,0.102
3,ATGAGAAA,0.0905
4,TAAGACGA,0.0852
5,AGCGATGA,-0.00781
6,CAGGTTTA,-0.0171
7,CCGCTGAC,0.164
8,AGTGAAAA,0.138
9,ACCTAGGT,-0.129
10,CCCGCACG,-0.0326
11,ACTAGACT,-0.219
12,AGTGTCAA,0.0488
13,CAGATATC,0.0973
14,ACAAAGTC,-0.0486
15,ACGGTGCC,-0.0427
16,CGGGACCG,0.0304
17,GAATCACC,0.069
18,GTATCGCA,-0.00484
19,CATGCTAA,0.119
20,GACGCTCC,-0.112
21,ACCCTTTC,-0.129
22,ACAGACGC,-0.0967
23,GCCTCGTA,0.102
24,GAACGTGA,0.0851
25,CACCTGCA,0.0275

row,Sequence,PBM E-score
1,GTAGCCGA,-0.0434
2,CACGTCTC,-0.0455
3,ATAAACCG,0.00794
4,CTAATGCA,0.153
5,CGTCGGAG,0.00297
6,GGGCGCCC,0.0661
7,ACACACGG,-0.0786
8,GCCTGAAA,0.0559
9,GCGCACCC,-0.0131
10,ATGCTGAG,-0.198
11,CAACGCAG,-0.0715
12,GAATAACC,-0.0686
13,AACCGACC,0.0155
14,AACTTTTA,0.173
15,CCTCGTAC,-0.0257
16,ATGAGTAC,0.0206
17,CCTAGGTC,-0.0745
18,GGCCTACC,-0.0038
19,TAACTGGA,-0.0338
20,GCCGTGCA,0.00627
21,CTGACAAG,0.101
22,GGAACCCC,-0.235
23,CTGTCAAG,-0.0861
24,GCTTTACC,0.148
25,CCTCAAAA,-0.149

row,Sequence,PBM E-score
1,AGGCCAGG,-0.068
2,AAGACGCC,0.0403
3,CTAATATA,0.239
4,ATCAAAAG,0.017
5,ATCCCAAA,-0.0834
6,TCAATCGA,0.131
7,AGACGCCT,-0.1
8,AAAGTAGT,-0.0673
9,CATTAGGG,-0.11
10,GATTACCA,0.179
11,ACGTAGTG,-0.0112
12,CAGAGTGG,-0.121
13,AGAAACAG,-0.0491
14,GCGTCAGA,0.0112
15,GCCGATTA,0.0275
16,AACTACTA,0.239
17,ACATCACA,0.0995
18,CCTACTAC,-0.0286
19,CCAGGCCC,0.0233
20,ATTGCCCC,-0.0974
21,GACCCATA,0.0887
22,GATAATGA,0.167
